Results as given in the supplement of paper PMC10689618.
Where a name gives a salt, the structure may show the parent alone. Some of the results follow. Many values rest on one well or one pass, so single values are uncertain.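 Primary human fetal astrocytes engulfed labelled rat cortical synaptosomes, measured as a red/green ratio corrected for calcein live-cell signal and scaled to the plate median. Toxicity meant calcein falling over 30%; decreased phagocytosis meant below 70% of median above 5 µM.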

Experiments:
Human fetal astrocytes [1] = assay: loss of total cells relative to no-compound high-control median (toxicity); higher = more toxic (fewer cells); settings: 24 h
Human fetal astrocytes [2] = assay: synaptosome phagocytosis (pHrodo/calcein intensity ratio) relative to plate median of data wells; higher = more phagocytosis; settings: 24 h

Row | SMILES | loss of total cells (Human fetal astrocytes [1]; 1.39 µM) | loss of total cells (Human fetal astrocytes [1]; 2.78 µM) | loss of total cells (Human fetal astrocytes [1]; 5.56 µM) | loss of total cells (Human fetal astrocytes [1]; 11.11 µM) | loss of total cells (Human fetal astrocytes [1]; 22.22 µM) | synaptosome phagocytosis (Human fetal astrocytes [2]; 1.39 µM) | synaptosome phagocytosis (Human fetal astrocytes [2]; 2.78 µM) | synaptosome phagocytosis (Human fetal astrocytes [2]; 5.56 µM) | synaptosome phagocytosis (Human fetal astrocytes [2]; 11.11 µM) | synaptosome phagocytosis (Human fetal astrocytes [2]; 22.22 µM)
1 | CCCCCCCCCCCCCCCCC(C(=O)O)C(O)(CC(=O)O)C(=O)O (stereo not given) | -11.5% | 7.6% | 1.5% | 10.8% | 21.5% | 83.3% | 94.4% | 75.7% | 84.9% | 113%
2 | CC(=O)OC/C=C(C)/C=C/C=C(C)/C=C/C1=C(C)CCCC1(C)C | 4.7% | 24.9% | 1.4% | 0.4% | 3% | 102% | 125% | 70.4% | 126% | 95%
3 | COc1ccc(C[C@H](N)C(=O)N[C@H]2[C@@H](O)[C@H](n3cnc4c(N(C)C)ncnc43)O[C@@H]2CO)cc1 | -3.3% | 3.4% | 9.9% | 33.6% | 25.5% | 73.5% | 93.7% | 50.7% | 27.9% | 29.3%
4 | Cn1ccnc1S | -5% | -14.9% | -3.9% | -10.2% | 0.6% | 97.6% | 94% | 120% | 123% | 118%
5 | CCCCCCCCCCCCC(C(=O)O)C(C)C(=O)O (stereo not given) | -14.9% | 9.3% | -10.7% | 6.5% | 1.1% | 115% | 94.3% | 105% | 85.8% | 97.8%
6 | CC(=O)OC(C)(C)[C@@H]1Cc2cc3ccc(=O)oc3cc2O1 | -13.1% | -21.3% | 11% | 8.8% | 10.4% | 94.2% | 81.2% | 102% | 78.9% | 112%
7 | O=C(O)C1CC([C@@H]2CCCCN2)CN2CCCCC12 (stereo not given in full) | -5.7% | -14.1% | 17.6% | 10.1% | 9.6% | 111% | 89% | 113% | 128% | 107%
8 | O=C(O[C@@H]1Cc2c(O)cc(O)cc2O[C@@H]1c1cc(O)c(=O)c2c(O)c(O)cc([C@H]3Oc4cc(O)cc(O)c4C[C@H]3O)c2c1)c1cc(O)c(O)c(O)c1 | -8.3% | 20.6% | 36.2% | 28% | 35.6% | 84.3% | 88.2% | 107% | 78.4% | 52%
9 | CCCCOC(=O)c1ccc(O)cc1 | 33.7% | 4.7% | -13% | 43.2% | -0.4% | 117% | 83.4% | 85.2% | 129% | 102%
10 | O=C(O)c1cc(=O)c2cccc(O)c2[nH]1 | 13.4% | 13.4% | 1.4% | 0.4% | 24.2% | 93.2% | 87.3% | 134% | 107% | 146%
11 | CC(C)CCCC(C)C1CCC2C3CCC4CCCCC4(C)C3CCC12C (stereo not given) | -13.4% | -2.7% | -7.6% | 30.3% | 8.5% | 105% | 84% | 106% | 91.4% | 109%
12 | CS(=O)(=O)c1ccc(C2=C(c3ccccc3)C(=O)OC2)cc1 | 38.7% | -21.4% | -6.2% | 18.7% | 4.7% | 159% | 110% | 117% | 116% | 112%
13 | C[C@@H]1CC[C@@]2(OC1)O[C@H]1C[C@H]3[C@@H]4CC[C@@H]5C[C@@H](O)CC[C@]5(C)[C@H]4CC[C@]3(C)[C@H]1[C@@H]2C | 25% | -2.7% | 35.9% | 5.2% | 34.4% | 116% | 130% | 164% | 105% | 149%
14 | NC(CO)C(=O)NNCc1ccc(O)c(O)c1O (stereo not given) [Benserazide hydrochloride] | -12.4% | -2.1% | 12.3% | -3.1% | 7.9% | 116% | 101% | 106% | 124% | 118%
15 | O=C(O)CN1C(=O)c2cccc3cccc(c23)C1=O | 29% | -20.6% | 9.3% | 7.5% | 13.4% | 116% | 65.2% | 100% | 106% | 110%
16 | CCCCCCCCCCCCCCCC(=O)OC/C=C(C)/C=C/C=C(C)/C=C/C1=C(C)CCCC1(C)C | -43.5% | -14.3% | 9.9% | 27.2% | 5.9% | 86.9% | 122% | 137% | 81.7% | 80.1%
17 | O=c1c(O)c(-c2ccccc2)oc2cc(O)ccc12 | 0% | 0.4% | -13.2% | 11.5% | 0.7% | 105% | 85.3% | 97.2% | 103% | 106%
18 | Nc1ccccc1S(N)(=O)=O | -1.1% | 9% | -1.4% | 10.5% | 23.5% | 119% | 127% | 97.1% | 114% | 97.2%
19 | C=C(C)[C@H]1COc2cc3oc(=O)ccc3cc2O1 | 12.7% | -6.6% | -3.8% | 40% | 9.3% | 127% | 68.8% | 119% | 139% | 131%

Part of the list above in order of count of non-hydrogen atoms, smallest number first.
Row | SMILES | loss of total cells (Human fetal astrocytes [1]; 1.39 µM) | loss of total cells (Human fetal astrocytes [1]; 2.78 µM) | loss of total cells (Human fetal astrocytes [1]; 5.56 µM) | loss of total cells (Human fetal astrocytes [1]; 11.11 µM) | loss of total cells (Human fetal astrocytes [1]; 22.22 µM) | synaptosome phagocytosis (Human fetal astrocytes [2]; 1.39 µM) | synaptosome phagocytosis (Human fetal astrocytes [2]; 2.78 µM) | synaptosome phagocytosis (Human fetal astrocytes [2]; 5.56 µM) | synaptosome phagocytosis (Human fetal astrocytes [2]; 11.11 µM) | synaptosome phagocytosis (Human fetal astrocytes [2]; 22.22 µM)
18 | Nc1ccccc1S(N)(=O)=O | -1.1% | 9% | -1.4% | 10.5% | 23.5% | 119% | 127% | 97.1% | 114% | 97.2%
14 | NC(CO)C(=O)NNCc1ccc(O)c(O)c1O (stereo not given) [Benserazide hydrochloride] | -12.4% | -2.1% | 12.3% | -3.1% | 7.9% | 116% | 101% | 106% | 124% | 118%
7 | O=C(O)C1CC([C@@H]2CCCCN2)CN2CCCCC12 (stereo not given in full) | -5.7% | -14.1% | 17.6% | 10.1% | 9.6% | 111% | 89% | 113% | 128% | 107%
